Here are results for 42 sequences from article PMC7819943, “Rice protein-binding microarrays: a tool to detect cis-acting elements near promoter regions in rice”.

Protein sequences, listed by entry. Tags and fused reporters are not part of them.
UniProt Q0JBA9, entry or part of it: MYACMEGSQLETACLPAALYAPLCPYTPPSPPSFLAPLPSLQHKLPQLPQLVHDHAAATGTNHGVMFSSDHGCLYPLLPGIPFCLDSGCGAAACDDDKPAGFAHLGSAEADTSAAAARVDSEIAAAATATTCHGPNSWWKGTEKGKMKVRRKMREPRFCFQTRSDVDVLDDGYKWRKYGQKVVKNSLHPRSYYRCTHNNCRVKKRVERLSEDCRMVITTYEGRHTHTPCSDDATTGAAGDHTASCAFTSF

The list shows a part of the results.

In the experiment the target is OsWRKY34 (Oryza sativa, UniProt Q0JBA9 1-250). The experiment can be described thus: protein-binding microarray (RPBM); PBS, 2% BSA, 51.3 ng/ul salmon testes DNA, 50 uM zinc acetate, 200 nM TF, 25 C, 1 h; high values mean tight binding. To be noted: protein: recombinant; tags: N-terminal polyhistidine and DsRed monomer fusion (pET32a); label: CyDye5-dUTP incorporated in the synthesized complementary strand; 3' TTTTT single-stranded linker to array surface; dsDNA, one strand shown. A digest of the protocol: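 Transcription factors, each fused N-terminally to a polyhistidine tag and DsRed, were expressed in E. coli BL21-CodonPlus and purified on Ni–NTA. A custom Agilent array was made double-stranded by primer extension with Cy5-dUTP and blocked with 2% BSA. It was incubated with 200 nM protein in PBS, 2% BSA, salmon testes DNA and 50 µM zinc acetate at 25 °C for 1 h, then washed. The binding signal is per-feature fluorescence intensity (arbitrary units) read on an Axon 4000B scanner.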
For “TGTTAATACTTTTGTCCTGTCGCTAATCTGATGGGTAACCCGGAGTCACCTAGTGCAG”, the binding signal was 8310 fluorescence intensity (a.u.).
Next, “CGCCTCGCGGCAGGCAGCCGAGCTGTCTCCAACCGTGCCGCGGAGTCACCTAGTGCAG”: 37300 fluorescence intensity (a.u.); “CCCCTCCTCCGGCTCTCCCGATTGGTCCACGCGCTCACACCGGAGTCACCTAGTGCAG”: 9890 fluorescence intensity (a.u.).
Then “ATGTTTGACACCGTTGACTTTTTAGTACGTGTTTGACCATCGGAGTCACCTAGTGCAG”, with 28200 fluorescence intensity (a.u.); and “CTCTGCACGTTTCTTTCCCCTAACAAATACATGTACACACCGGAGTCACCTAGTGCAG”, with 9590 fluorescence intensity (a.u.).
Next, “ATCGCCACGTCCACGCCTCGCTCGCGTTTTATCCGTTTCGCGGAGTCACCTAGTGCAG”: 11600 fluorescence intensity (a.u.).
As for “CATATGCTCCACACTTTTCTGCTTCACCATGGCATGTTTTCGGAGTCACCTAGTGCAG”, the binding signal is 15100 fluorescence intensity (a.u.).
Then “CCGGTCGCTTTCTTCGTCACGTTACCGCGGGAATCATCGTCGGAGTCACCTAGTGCAG”, with 12400 fluorescence intensity (a.u.).
Then “CGCCACCGCTGCCTGCTCCGATCCCCATTCATCGCGCGAGCGGAGTCACCTAGTGCAG”, with 8230 fluorescence intensity (a.u.).
Then “GGTGTGTTCTTGGCTCCGATTCGGCCGCGGCTCCCGGTGACGGAGTCACCTAGTGCAG”, with 9360 fluorescence intensity (a.u.).
On to “GCACGAGGCACATCCACACCGTCCGTCCCATCCGTACGTACGGAGTCACCTAGTGCAG”, for which the binding signal was 10100 fluorescence intensity (a.u.).
Then “GTTCAGAATCTCCCGGACGGAGCACGAACATGTGTGTTGTCGGAGTCACCTAGTGCAG”, with 8350 fluorescence intensity (a.u.).
Next, “AATGGGGCTCTGCATGGGCGGGCACTCCGCTGCCACGGCGCGGAGTCACCTAGTGCAG”: 10100 fluorescence intensity (a.u.); “ACACCGTTCAGTTCATCCTCACCTCTTGTTCTCCACAATTCGGAGTCACCTAGTGCAG”: 10300 fluorescence intensity (a.u.); “CCCAGCTTCTCCAGCTTCTGGCTTCTTAGTTCATTTTTCACGGAGTCACCTAGTGCAG”: 8940 fluorescence intensity (a.u.).
Then “CTTATTCTCATGTGGTGTGATGTGTAATTCACATGGTTGACGGAGTCACCTAGTGCAG”, with 9280 fluorescence intensity (a.u.).
With “CACAGATCACCAAGCCACAATCGCCCACACACAAATACTCCGGAGTCACCTAGTGCAG”, the binding signal is 10300 fluorescence intensity (a.u.).
Then “TTTTTACACGCGTTTTTTTTACATTGTCGTTTTTTTTTTGCGGAGTCACCTAGTGCAG”, with 13500 fluorescence intensity (a.u.); and “TGTAAGTCATTCTAGCACTTTTCACATTCATATTGATCTACGGAGTCACCTAGTGCAG”, with 8820 fluorescence intensity (a.u.).
Then “GAGAGATTCGATCCTTTTGTTTGCTTTGTTGTTGCCGTCGCGGAGTCACCTAGTGCAG”, with 8090 fluorescence intensity (a.u.).
Next, “ATTTATATGGGTAATGGGTGGGTAATGGGTAATGTGTATTCGGAGTCACCTAGTGCAG”: 16300 fluorescence intensity (a.u.); “GCCCCACTCCCAACCCATCTCCACCGTCCGTCTCCATCCGCGGAGTCACCTAGTGCAG”: 10000 fluorescence intensity (a.u.); “TTGATGCTTAATCTGGTGTTTGTTATGTTCATTTTTTCATCGGAGTCACCTAGTGCAG”: 12200 fluorescence intensity (a.u.).
Turning to “TTAAGTTCTTTTCATCGACTCATTTCGTGCTTTTGTATTTCGGAGTCACCTAGTGCAG”, the binding signal was 9320 fluorescence intensity (a.u.).
Then “TCTCACGCGCCTTTCTTTCTGTTCATTTCCTTGGGGTTTACGGAGTCACCTAGTGCAG”, with 14300 fluorescence intensity (a.u.).
Take “GGGTGTGTCATCTAGATCCCTAAACTCTCAAAATGATTTACGGAGTCACCTAGTGCAG”: the binding signal was 9020 fluorescence intensity (a.u.).
Then “TGTGTCACATCCAGTATTGGTTTTTTTATGGGAAGGAGGGCGGAGTCACCTAGTGCAG”, with 8300 fluorescence intensity (a.u.); and “TCGCATCCTCTCCTGTATATATTATCTCCCACTCCTCTCTCGGAGTCACCTAGTGCAG”, with 9510 fluorescence intensity (a.u.).
Next, “GGGAGGTCCTCGATCGATCGATCATCAGGTGGCAGCTGCACGGAGTCACCTAGTGCAG”: 8210 fluorescence intensity (a.u.).
Then “GCGTGCGAAACTGGCCCATTATTTCTTTGGATCAATATACCGGAGTCACCTAGTGCAG”, with 8230 fluorescence intensity (a.u.); and “CTCCATCCACGGCGAGCACTCATCCAAACCGTCCATCCACCGGAGTCACCTAGTGCAG”, with 8110 fluorescence intensity (a.u.); and “GGGCTGCCAATTTGCCAAATCATATTCTCACGCCCTACCTCGGAGTCACCTAGTGCAG”, with 8300 fluorescence intensity (a.u.).
With “GTTTGTCCATGGCGCCACCACCACCGCCACCACCGCTGCACGGAGTCACCTAGTGCAG”, the binding signal is 9900 fluorescence intensity (a.u.).
Then “CTCTCTCTCTCTCTCTCTCTCTCCTCCGCTTCTTCCTACACGGAGTCACCTAGTGCAG”, with 15700 fluorescence intensity (a.u.); and “ACGCCGTCCTCTATGCCGAAATCTTACCGTCACCACTGCCCGGAGTCACCTAGTGCAG”, with 8330 fluorescence intensity (a.u.); and “ATCTTTTCCGCTGTTGCTGCTCCTCCTTTCTCGCTCTCGCCGGAGTCACCTAGTGCAG”, with 9750 fluorescence intensity (a.u.).
Consider “ACGTCATCCCTTATTACATCTTCCCGCGTTTAATTAGTACCGGAGTCACCTAGTGCAG”, for which the binding signal was 11300 fluorescence intensity (a.u.).
Next, “ATTAGCATTCCGCCATGTTATCATTCCCTTGTGTTTTTCCCGGAGTCACCTAGTGCAG”: 9360 fluorescence intensity (a.u.); “TGATGACGGTTTTACTGGCGCGACCGACCGGACCGGACCCCGGAGTCACCTAGTGCAG”: 8440 fluorescence intensity (a.u.); “GTTTGTTTTTATTCTTCTTTCCCCATTTTTTCTCTTGATCCGGAGTCACCTAGTGCAG”: 12600 fluorescence intensity (a.u.).
Next, “AAATGCCATCGCCGTCACTTTCACTCTGTTAGACACCGTTCGGAGTCACCTAGTGCAG”: 8390 fluorescence intensity (a.u.).
Then “CGTCTCGTTTCTCATCTCAAAATTTCGCGCCTCGTCGCCGCGGAGTCACCTAGTGCAG”, with 8640 fluorescence intensity (a.u.).
